Assay results as given in PMC3858230.
No constants are given. Whether binding was seen depends on the method and setting. Binding seen in cells or lysates may run through a third protein. Some results given as binding are weak or reduced against the parent protein; the word gives no strength. Where a sequence is shown, tags or fusion partners need not be part of it.

Biological target: T1, Biotp-Fctwt: F cytoplasmic tail (wt TYTLE) fused to a peptide containing a biotinylation site (Sendai virus) (UniProt P04855)
T1 sequence (chain, biotin on the biotinylation site of Biotp): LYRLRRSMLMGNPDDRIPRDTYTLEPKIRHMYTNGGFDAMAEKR
Test: pull-down; streptavidin agarose pull-down of biotinylated Biotp fusions from lysates of infected α-gfpt siRNA MDCK cells, 30 h post infection; lysing buffer I (NaCl 10 mM, Tris-HCl pH 8.0 50 mM, NP40 0.6%); 2 h at 4°C; 5 washes with NET buffer; Western blot with α-M

B1: Sendai virus matrix protein M (protein, UniProt P06446 1-348)
chain: MADIYRFPKFSYEDNGTVEPLPLRTGPDKKAIPHIRIVKVGDPPKHGVRYLDLLLLGFFETPKQTTNLGSVSDLTEPTSYSICGSGSLPIGVAKYYGTDQELLKACTDLRITVRRTVRAGEMIVYMVDSIGAPLLPWSGRLRQGMIFNANKVALAPQCLPVDKDIRLRVVFVNGTSLGAITIAKIPKTLADLALPNSISVNLLVTLKTGISTEQKGVLPVLDDQGEKKLNFMVHLGLIRRKVGKIYSVEYCKSKIERMRLIFSLGLIGGISFHVQVNGTLSKTFMSQLAWKRAVCFPLMDVNPHMNMVIWAASVEITGVDAVFQPAIPRDFRYYPNVVAKNIGRIRKL
With B1 the binding was “binds”.
